Measured values from article PMC6377682.
No constants are given. Whether binding was seen depends on the method and setting. In cells and extracts the contact can be indirect. Here binding means that the protein was enriched with, or labelled near, the bait; the list need not be complete.

By UniProt entry, the sequences of proteins in these tests, tags left out.
UniProt P62136: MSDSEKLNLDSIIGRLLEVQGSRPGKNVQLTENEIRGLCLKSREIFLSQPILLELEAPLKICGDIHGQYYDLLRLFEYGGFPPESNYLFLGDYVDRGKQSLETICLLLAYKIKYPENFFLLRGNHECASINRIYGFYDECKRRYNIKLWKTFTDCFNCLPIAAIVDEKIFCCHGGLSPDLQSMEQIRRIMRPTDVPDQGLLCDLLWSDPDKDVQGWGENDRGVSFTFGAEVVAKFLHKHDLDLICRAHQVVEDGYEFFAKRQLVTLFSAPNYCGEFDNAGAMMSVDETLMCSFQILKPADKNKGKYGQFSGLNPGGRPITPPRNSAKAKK
UniProt P62140: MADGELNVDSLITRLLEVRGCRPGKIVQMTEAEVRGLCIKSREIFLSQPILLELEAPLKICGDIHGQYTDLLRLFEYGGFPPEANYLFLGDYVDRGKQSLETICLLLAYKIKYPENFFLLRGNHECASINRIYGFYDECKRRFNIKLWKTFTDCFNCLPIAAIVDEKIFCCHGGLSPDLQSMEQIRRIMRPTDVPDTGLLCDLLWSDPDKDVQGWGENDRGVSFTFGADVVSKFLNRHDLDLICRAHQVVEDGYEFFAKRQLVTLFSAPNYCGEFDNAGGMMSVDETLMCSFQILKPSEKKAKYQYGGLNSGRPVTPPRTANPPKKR
UniProt P36873: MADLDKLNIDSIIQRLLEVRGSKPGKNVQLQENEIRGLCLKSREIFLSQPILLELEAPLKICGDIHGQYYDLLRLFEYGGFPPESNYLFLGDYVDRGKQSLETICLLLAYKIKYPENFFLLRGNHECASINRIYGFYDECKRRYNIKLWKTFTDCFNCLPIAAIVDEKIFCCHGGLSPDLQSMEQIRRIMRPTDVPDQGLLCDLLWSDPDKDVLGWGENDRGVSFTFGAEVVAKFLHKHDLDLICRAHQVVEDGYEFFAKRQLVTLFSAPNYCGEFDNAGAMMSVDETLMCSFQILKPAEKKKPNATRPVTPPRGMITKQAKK

Experiments:
Assay in all cases: affinity purification with mass spectrometry; Strep-HA tagged bait stably expressed in HEK Flp-In 293 T-REx cells; Strep-Tactin sepharose, HNN lysis buffer (50 mM HEPES pH 7.5, 150 mM NaCl, 50 mM NaF, 0.5% Igepal CA-630), biotin elution; quantitative LC-MS/MS, three biological replicates
[1] = biological target: Strep-HA tagged PP1α (human) (UniProt P62136)
[2] = biological target: Strep-HA tagged PP1β (human) (UniProt P62140)
[3] = biological target: Strep-HA tagged PP1γ1 (human) (UniProt P36873)

binding [1] | binding [2] | binding [3] | Binder
binds | – | – | endogenous RASSF7 of HEK293T cells (protein, UniProt Q02833 1-373) MLLGLAAMELKVWVDGIQRVVCGVSEQTTCQEVVIALAQAIGQTGRFVLVQRLREKERQLLPQECPVGAQATCGQFASDVQFVLRRTGPSLAGRPSSDSCPPPERCLIRASLPVKPRAALGCEPRKTLTPEPAPSLSRPGPAAPVTPTPGCCTDLRGLELRVQRNAEELGHEAFWEQELRREQAREREGQARLQALSAATAEHAARLQALDAQARALEAELQLAAEAPGPPSPMASATERLHQDLAVQERQSAEVQGSLALVSRALEAAERALQAQAQELEELNRELRQCNLQQFIQQTGAALPPPPRPDRGPPGTQGPLPPAREESLLGAPSESHAGAQPRPRGGPHDAELLEVAAAPAPEWCPLAAQPQAL
binds | binds | binds weakly | endogenous iASPP of HEK293T cells (protein, UniProt Q8WUF5 1-828) MDSEAFQSARDFLDMNFQSLAMKHMDLKQMELDTAAAKVDELTKQLESLWSDSPAPPGPQAGPPSRPPRYSSSSIPEPFGSRGSPRKAATDGADTPFGRSESAPTLHPYSPLSPKGRPSSPRTPLYLQPDAYGSLDRATSPRPRAFDGAGSSLGRAPSPRPGPGPLRQQGPPTPFDFLGRAGSPRGSPLAEGPQAFFPERGPSPRPPATAYDAPASAFGSSLLGSGGSAFAPPLRAQDDLTLRRRPPKAWNESDLDVAYEKKPSQTASYERLDVFARPASPSLQLLPWRESSLDGLGGTGKDNLTSATLPRNYKVSPLASDRRSDAGSYRRSLGSAGPSGTLPRSWQPVSRIPMPPSSPQPRGAPRQRPIPLSMIFKLQNAFWEHGASRAMLPGSPLFTRAPPPKLQPQPQPQPQPQSQPQPQLPPQPQTQPQTPTPAPQHPQQTWPPVNEGPPKPPTELEPEPEIEGLLTPVLEAGDVDEGPVARPLSPTRLQPALPPEAQSVPELEEVARVLAEIPRPLKRRGSMEQAPAVALPPTHKKQYQQIISRLFHRHGGPGPGGPEPELSPITEGSEARAGPPAPAPPAPIPPPAPSQSSPPEQPQSMEMRSVLRKAGSPRKARRARLNPLVLLLDAALTGELEVVQQAVKEMNDPSQPNEEGITALHNAICGANYSIVDFLITAGANVNSPDSHGWTPLHCAASCNDTVICMALVQHGAAIFATTLSDGATAFEKCDPYREGYADCATYLADVEQSMGLMNSGAVYALWDYSAEFGDELSFREGESVTVLRRDGPEETDWWWAALHGQEGYVPRNYFGLFPRVKPQRSKV
binds | binds | binds | endogenous ASPP1 of HEK293T cells (protein, UniProt Q96KQ4 1-1090) MMPMILTVFLSNNEQILTEVPITPETTCRDVVEFCKEPGEGSCHLAEVWRGNERPIPFDHMMYEHLQKWGPRREEVKFFLRHEDSPTENSEQGGRQTQEQRTQRNVINVPGEKRTENGVGNPRVELTLSELQDMAARQQQQIENQQQMLVAKEQRLHFLKQQERRQQQSISENEKLQKLKERVEAQENKLKKIRAMRGQVDYSKIMNGNLSAEIERFSAMFQEKKQEVQTAILRVDQLSQQLEDLKKGKLNGFQSYNGKLTGPAAVELKRLYQELQIRNQLNQEQNSKLQQQKELLNKRNMEVAMMDKRISELRERLYGKKIQLNRVNGTSSPQSPLSTSGRVAAVGPYIQVPSAGSFPVLGDPIKPQSLSIASNAAHGRSKSANDGNWPTLKQNSSSSVKPVQVAGADWKDPSVEGSVKQGTVSSQPVPFSALGPTEKPGIEIGKVPPPIPGVGKQLPPSYGTYPSPTPLGPGSTSSLERRKEGSLPRPSAGLPSRQRPTLLPATGSTPQPGSSQQIQQRISVPPSPTYPPAGPPAFPAGDSKPELPLTVAIRPFLADKGSRPQSPRKGPQTVNSSSIYSMYLQQATPPKNYQPAAHSALNKSVKAVYGKPVLPSGSTSPSPLPFLHGSLSTGTPQPQPPSESTEKEPEQDGPAAPADGSTVESLPRPLSPTKLTPIVHSPLRYQSDADLEALRRKLANAPRPLKKRSSITEPEGPGGPNIQKLLYQRFNTLAGGMEGTPFYQPSPSQDFMGTLADVDNGNTNANGNLEELPPAQPTAPLPAEPAPSSDANDNELPSPEPEELICPQTTHQTAEPAEDNNNNVATVPTTEQIPSPVAEAPSPGEEQVPPAPLPPASHPPATSTNKRTNLKKPNSERTGHGLRVRFNPLALLLDASLEGEFDLVQRIIYEVEDPSKPNDEGITPLHNAVCAGHHHIVKFLLDFGVNVNAADSDGWTPLHCAASCNSVHLCKQLVESGAAIFASTISDIETAADKCEEMEEGYIQCSQFLYGVQEKLGVMNKGVAYALWDYEAQNSDELSFHEGDALTILRRKDESETEWWWARLGDREGYVPKNLLGLYPRIKPRQRTLA
binds | – | – | endogenous RASSF8 of HEK293T cells (protein, UniProt Q8NHQ8 1-419) MELKVWVDGVQRIVCGVTEVTTCQEVVIALAQAIGRTGRYTLIEKWRDTERHLAPHENPIISLNKWGQYASDVQLILRRTGPSLSERPTSDSVARIPERTLYRQSLPPLAKLRPQIDKSIKRREPKRKSLTFTGGAKGLMDIFGKGKETEFKQKVLNNCKTTADELKKLIRLQTEKLQSIEKQLESNEIEIRFWEQKYNSNLEEEIVRLEQKIKRNDVEIEEEEFWENELQIEQENEKQLKDQLQEIRQKITECENKLKDYLAQIRTMESGLEAEKLQREVQEAQVNEEEVKGKIGKVKGEIDIQGQQSLRLENGIKAVERSLGQATKRLQDKEQELEQLTKELRQVNLQQFIQQTGTKVTVLPAEPIEIEASHADIEREAPFQSGSLKRPGSSRQLPSNLRILQNPISSGFNPEGIYV
